Patent publication US20190315872A1
No constants are given. Whether binding was seen depends on the method and setting. Some results given as binding are weak or reduced against the parent protein; the word gives no strength.

Amino acid sequences for entries named in this document (tags omitted). A change or cut given only in a name is not applied to a line headed by its entry.
UniProt P08581: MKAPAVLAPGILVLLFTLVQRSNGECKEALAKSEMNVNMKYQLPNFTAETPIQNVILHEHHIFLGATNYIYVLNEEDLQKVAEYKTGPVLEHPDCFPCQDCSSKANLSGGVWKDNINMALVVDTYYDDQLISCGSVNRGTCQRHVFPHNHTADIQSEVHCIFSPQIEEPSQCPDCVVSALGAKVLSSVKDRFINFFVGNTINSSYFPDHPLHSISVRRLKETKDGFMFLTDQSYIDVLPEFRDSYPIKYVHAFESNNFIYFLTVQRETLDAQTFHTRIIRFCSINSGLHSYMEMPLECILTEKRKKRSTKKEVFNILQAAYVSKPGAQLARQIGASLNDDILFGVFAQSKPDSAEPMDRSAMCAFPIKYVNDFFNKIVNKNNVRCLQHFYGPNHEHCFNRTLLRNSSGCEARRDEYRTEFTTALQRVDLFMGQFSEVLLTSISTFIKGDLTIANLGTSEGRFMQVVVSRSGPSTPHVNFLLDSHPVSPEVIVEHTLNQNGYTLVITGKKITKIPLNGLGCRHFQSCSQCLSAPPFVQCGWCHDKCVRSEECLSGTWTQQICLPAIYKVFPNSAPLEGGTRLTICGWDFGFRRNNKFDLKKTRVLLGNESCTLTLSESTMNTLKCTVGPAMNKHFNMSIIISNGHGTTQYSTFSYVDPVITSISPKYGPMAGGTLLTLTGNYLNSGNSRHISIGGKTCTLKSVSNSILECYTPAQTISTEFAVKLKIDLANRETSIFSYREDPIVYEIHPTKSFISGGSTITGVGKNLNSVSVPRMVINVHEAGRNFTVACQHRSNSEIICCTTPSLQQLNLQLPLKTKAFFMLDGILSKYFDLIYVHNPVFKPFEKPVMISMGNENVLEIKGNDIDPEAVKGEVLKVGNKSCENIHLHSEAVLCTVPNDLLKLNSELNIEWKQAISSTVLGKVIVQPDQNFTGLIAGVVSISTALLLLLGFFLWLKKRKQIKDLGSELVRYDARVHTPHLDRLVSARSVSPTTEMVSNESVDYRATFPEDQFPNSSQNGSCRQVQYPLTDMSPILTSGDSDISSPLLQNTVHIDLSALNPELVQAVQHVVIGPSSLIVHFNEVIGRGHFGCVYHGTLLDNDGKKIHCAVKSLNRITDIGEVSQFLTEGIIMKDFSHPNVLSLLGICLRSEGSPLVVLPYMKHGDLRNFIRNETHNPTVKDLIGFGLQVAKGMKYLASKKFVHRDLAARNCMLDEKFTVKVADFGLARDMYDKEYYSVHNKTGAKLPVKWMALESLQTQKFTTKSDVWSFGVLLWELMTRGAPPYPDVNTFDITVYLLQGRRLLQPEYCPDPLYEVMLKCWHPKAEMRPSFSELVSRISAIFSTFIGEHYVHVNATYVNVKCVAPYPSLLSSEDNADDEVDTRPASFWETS
UniProt P16056: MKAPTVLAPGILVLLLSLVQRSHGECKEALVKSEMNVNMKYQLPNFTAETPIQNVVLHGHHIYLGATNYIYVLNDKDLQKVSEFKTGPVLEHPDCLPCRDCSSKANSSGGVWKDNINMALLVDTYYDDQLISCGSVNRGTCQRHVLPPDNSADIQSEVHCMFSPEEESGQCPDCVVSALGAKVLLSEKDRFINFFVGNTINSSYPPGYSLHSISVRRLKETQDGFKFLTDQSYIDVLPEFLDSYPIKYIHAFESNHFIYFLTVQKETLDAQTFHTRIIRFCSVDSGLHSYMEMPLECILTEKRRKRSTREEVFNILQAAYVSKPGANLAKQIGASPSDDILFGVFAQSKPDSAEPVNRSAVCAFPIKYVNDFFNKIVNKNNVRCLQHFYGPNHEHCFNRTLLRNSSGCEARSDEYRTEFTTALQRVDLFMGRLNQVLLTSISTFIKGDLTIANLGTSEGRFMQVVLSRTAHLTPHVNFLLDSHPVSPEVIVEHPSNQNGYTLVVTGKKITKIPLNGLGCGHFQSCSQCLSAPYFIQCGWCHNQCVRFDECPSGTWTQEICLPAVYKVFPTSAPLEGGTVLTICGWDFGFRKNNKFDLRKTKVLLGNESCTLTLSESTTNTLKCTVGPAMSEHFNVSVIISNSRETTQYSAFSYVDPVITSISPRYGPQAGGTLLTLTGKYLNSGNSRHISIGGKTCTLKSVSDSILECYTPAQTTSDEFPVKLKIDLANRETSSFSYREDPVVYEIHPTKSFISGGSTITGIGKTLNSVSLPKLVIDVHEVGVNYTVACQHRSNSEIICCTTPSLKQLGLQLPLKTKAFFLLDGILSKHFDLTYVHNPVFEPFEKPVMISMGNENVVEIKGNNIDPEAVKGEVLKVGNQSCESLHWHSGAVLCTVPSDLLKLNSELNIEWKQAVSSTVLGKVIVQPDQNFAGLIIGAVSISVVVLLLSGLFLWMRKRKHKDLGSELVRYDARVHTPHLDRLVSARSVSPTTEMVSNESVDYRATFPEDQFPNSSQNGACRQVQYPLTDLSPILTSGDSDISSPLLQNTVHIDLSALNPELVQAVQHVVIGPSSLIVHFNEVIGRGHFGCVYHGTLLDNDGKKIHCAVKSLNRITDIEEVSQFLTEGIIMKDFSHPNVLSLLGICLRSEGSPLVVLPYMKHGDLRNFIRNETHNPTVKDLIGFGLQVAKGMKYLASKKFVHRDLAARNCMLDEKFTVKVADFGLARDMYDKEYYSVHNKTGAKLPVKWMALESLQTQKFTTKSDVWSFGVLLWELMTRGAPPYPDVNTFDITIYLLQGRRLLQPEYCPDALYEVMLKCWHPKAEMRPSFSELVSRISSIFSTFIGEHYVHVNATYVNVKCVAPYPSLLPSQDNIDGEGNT

B1: 1E4 scFv (scFv)
scFv: QVQLVQSGAEVKKPGESLRISCQGSGYSFPTHWITWVRQMPGKGLEWMGTIDPTDSYNFYGPSFQGHVTISADSSSSTAYLQWSSLKASDTAMYYCARDGNYYDSRGYYYDTFDMWGQGTLVTVSSGLGGLGGGGSGGGGSGGSSGVGSDIQMTQSPSFLSASVGDRVTITCRASQGISTYLAWYQQKPGTAPKLLIYSASTLESGVPSRFSGSGSGTDFTLTISSLQPEDSATYYCQQADSFPLTFGGGTKVEIKRGGASLVE
B2: 1E4 IgG1 antibody (antibody, V domains shown)
VH: QVQLVQSGAEVKKPGESLRISCQGSGYSFPTHWITWVRQMPGKGLEWMGTIDPTDSYNFYGPSFQGHVTISADSSSSTAYLQWSSLKASDTAMYYCARDGNYYDSRGYYYDTFDMWGQGTLVTVSS
VL: DIQMTQSPSFLSASVGDRVTITCRASQGISTYLAWYQQKPGTAPKLLIYSASTLESGVPSRFSGSGSGTDFTLTISSLQPEDSATYYCQQADSFPLTFGGGTKVEIKR

Columns and labels:
Human c-Met (human) [1] = target: Human c-Met (human) (UniProt P08581); test: phage display biopanning on human c-Met (summary of PCT/KR2015/007899)
Human c-Met (human) [2] = target: Human c-Met (human) (UniProt P08581); test: BIAcore (SPR)
Mouse c-Met (mouse) = Mouse c-Met (mouse) (UniProt P16056); test: BIAcore (SPR)

| Binder | binding (Human c-Met (human) [1]) | binding (Human c-Met (human) [2]) | binding (Mouse c-Met (mouse)) |
| --- | --- | --- | --- |
| B1 | binds | – | – |
| B2 | – | binds | binds |
